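Enzyme assay of the cytosolic lysyl-tRNA synthetase in 384-well plates, read by luminescence. Target: Lysine-tRNA ligase, Plasmodium falciparum 3D7 (UniProt Q8IDJ8). Concentration: 30 µM. Higher reads as stronger inhibition, judged from the few compounds that gave an IC50. Of about 69,000 compounds tested this way, about 49 (0.071%) reached 50% or more in at least one test.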

Chains of the proteins cited; added tags and fusions are not shown. Residues count along the entry.
UniProt Q8IDJ8, 1-583: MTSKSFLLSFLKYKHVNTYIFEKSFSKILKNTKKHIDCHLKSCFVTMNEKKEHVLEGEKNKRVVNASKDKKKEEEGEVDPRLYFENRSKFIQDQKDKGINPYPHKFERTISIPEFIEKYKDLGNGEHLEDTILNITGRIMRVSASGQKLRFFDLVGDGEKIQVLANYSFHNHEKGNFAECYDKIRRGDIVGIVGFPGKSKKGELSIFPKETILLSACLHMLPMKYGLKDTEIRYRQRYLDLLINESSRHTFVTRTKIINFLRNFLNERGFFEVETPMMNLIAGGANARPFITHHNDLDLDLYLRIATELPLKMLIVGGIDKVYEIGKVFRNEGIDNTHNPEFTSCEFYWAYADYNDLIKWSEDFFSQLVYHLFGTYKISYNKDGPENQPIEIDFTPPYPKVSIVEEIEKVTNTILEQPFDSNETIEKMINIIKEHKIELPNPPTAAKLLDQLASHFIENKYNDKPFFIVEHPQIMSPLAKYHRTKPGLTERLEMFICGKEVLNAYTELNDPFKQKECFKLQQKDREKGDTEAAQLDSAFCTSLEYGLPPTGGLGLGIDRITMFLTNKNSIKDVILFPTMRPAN

Each number is a percent effect as filed.
The record does not define 0% and 100%; most values in the screen are far below 50% and negative numbers occur (in some assays of this library far below -100).
This is an unselected part of the compounds tested.

| structure | percent effect |
|---|---|
| `COC(=O)c1ccn(CC(=O)Nc2nn(CC3CC3)c3ccccc23)n1` | -0.4344 |
| `CC(=O)N1CCC(c2cncc(N3CCCC(O)C3)n2)CC1` (configuration not stated) | -0.9584 |
| `Cc1nonc1C1CCCN1CCC(=O)N1CCc2ccccc2C1` (configuration not stated) | -1.012 |
| `Cc1cc(CCC(=O)O)nc(C2CCCN2c2ccnc(C)n2)n1` (configuration not stated) | 1.912 |
| `CC(C)COC1CC2(CCN(Cc3nccn3C)CC2)C1` | 3.643 |
| `Cc1cc(=O)n(CCNS(=O)(=O)c2cccc(C(F)(F)F)c2)cn1` | 4.591 |
| `COc1ccccc1CN(C)c1nccc(-c2cn(C)nc2C)n1` | 7.92 |
| `Cc1ccccc1C1(CNc2nnc(C)c(C)c2C#N)CCOCC1` | 4.047 |
| `Fc1cnc(N2CC[C@@H]3CN(Cc4ccncc4)CCO[C@@H]3C2)nc1` | 0.9582 |
| `Fc1cccc(F)c1Cn1c(C2CCNCC2)cc2cccnc21` | 1.84 |
| `CCn1cc(CN2CCN(C(=O)c3cc(Br)cs3)CC2)c(C)n1` | 0.273 |
| `CNC(=O)C1CN(C(=O)COc2ccccc2)Cc2cn(C)nc21` (configuration not stated) | 3.317 |
| `Cc1ccc(C(=O)N2CCC3(CCN(c4ccsc4)C3=O)C2)cn1` (configuration not stated) | -0.2986 |
| `COc1cccc(OCCNS(=O)(=O)Cc2ccccc2)c1` | -1.367 |
| `NC(=O)[C@@H]1Cc2ccccc2N1C(=O)C1CC(c2ccccc2)=NO1` (some centres not stated) | 0.5439 |
| `Cn1cccc1C(=O)N1CCC2(CCCN2Cc2ccccc2)CC1` | 5.143 |
| `O=C(C1CC1)N1CCN2C[C@@H](CO)[C@H](c3ccccc3)[C@H]2C1` | 2.849 |
| `O=C(CCN1CCCC1=O)Nc1cnn(-c2ccccc2Cl)c1` | -0.8568 |
| `CC[C@@H](Cn1ncc2ccccc2c1=O)NC(=O)c1cnccn1` | 1.645 |
| `CCCN(Cc1cccnc1)C1CC(C)(C)NC(C)(C)C1` | 3.03 |
| `CCS(=O)(=O)N1CCCC2(CCCN2Cc2cccc(F)c2)C1` (configuration not stated) | 3.448 |
| `O=c1cc(Cn2cncn2)nc2n1CCCN(CC1CC1)C2` | 1.544 |
| `CCN1CCN(S(=O)(=O)c2cc(C)c(Cl)cc2C)CC1` | 2.487 |
| `COCc1noc(CCNc2nc(CC3CC3)nc3c2CCNCC3)n1` | -1.867 |
| `CC[C@H]1CN2CC[C@H]1C[C@@H]2CNC(=O)c1ccco1` | 3.279 |
| `CNC(=O)C1(c2cnccn2)CCCN1C(=O)c1cccc(F)c1` (configuration not stated) | 0.09307 |
| `CC(=O)NCC(=O)N1CCOC2(CCCN(c3cccnc3)C2)C1` (configuration not stated) | 4.371 |
| `c1cc(COC[C@]23COC[C@H]2CN(Cc2ccncc2)C3)ccn1` | 1.138 |
| `Cc1nc(NC(=O)OC(C)(C)C)sc1C(=O)O` | 1.56 |
| `CC(CCc1ccccc1F)C(=O)NS(=O)(=O)N(C)C(C)C` (configuration not stated) | -0.4277 |
| `CC[C@H]1CN(C(=O)CCn2c(C)cccc2=O)CC[C@@]1(C)O` | -0.1638 |
| `Fc1ccc(C2(CNCCc3cccs3)CCOC2)cc1` (configuration not stated) | 5.056 |
| `O=C1CCCN1Cc1ncn2c1CN(C(=O)NC1CCCCC1)CCC2` | 1.709 |
| `CN1CCCN(C(=O)c2csc3nc(-c4ccc(Cl)cc4)cn23)CC1` | -2.821 |
| `O=C(c1ccc(CN2CCCCC2)cc1)N1CCCC1c1cccs1` (configuration not stated) | 0.02512 |
| `NC(=O)C1(CCCc2ccccn2)CCCN(c2ncccn2)C1` (configuration not stated) | 2.116 |
| `O=C(Nc1ccc(-n2cccn2)c(F)c1)C1CCN(C(=O)C2CC2)CC1` | 4.379 |
| `COc1ccc(CN2CCC(O)(CN3CCCCC3)C2)c(C)c1` (configuration not stated) | 6.467 |
| `CC1c2ncc(Cn3cncn3)n2CCN1C(=O)c1ccsc1` (configuration not stated) | 3.397 |
| `CC(C)c1ccc(CN2CCC3(CCCN(c4nncs4)C3)C2)cc1` (configuration not stated) | 6.324 |
| `CC(C)N(CCNC(=O)N1CCCC(N(C)C)C1)C1CC1` (configuration not stated) | 0.3165 |
| `CN1CCC(c2cncc(N(C)C)n2)CC1` | 3.614 |
| `COc1ccccc1CC(C)CC(=O)NS(=O)(=O)C(C)C` (configuration not stated) | 4.476 |
| `Cc1ccncc1NS(=O)(=O)c1ccc(Cl)s1` | 2.332 |
| `Cc1nn(C)c2nc(C(C)C)cc(C(=O)Nc3n[nH]c(C4CC4)n3)c12` | -1.066 |
| `CCn1ncc(CN2CCC(c3ncc(Cl)cc3S(C)(=O)=O)CC2)c1C` | 1.152 |
| `Cc1cc(C)nc(C2CCN(C(=O)c3c(C)noc3C)C2)n1` (configuration not stated) | 0.192 |
| `COc1cc(C)nc(N2CCN(C(=O)c3cccc(C#N)c3)CC2)n1` | 1.971 |
| `COCc1cc(N(CC(F)F)C2CC2)n2ncnc2n1` | 17.73 |
| `CC(NC1CCN(CCS(C)(=O)=O)CC1)c1cnn(C(C)C)c1` (configuration not stated) | 0.4119 |

Some entries from above, unchanged:

With COCc1noc(CCNc2nc(CC3CC3)nc3c2CCNCC3)n1 the screen gave -1.867%.
With c1cc(COC[C@]23COC[C@H]2CN(Cc2ccncc2)C3)ccn1 the screen gave 1.138%.
With COc1ccc(CN2CCC(O)(CN3CCCCC3)C2)c(C)c1 (configuration not stated) the screen gave 6.467%.

From ChEMBL document CHEMBL3988442, “University of Dundee, Small-Polar-MMV Screening Library” (2021).